Data taken from paper PMC3084761.
These are yes or no findings as the source states them, for the method shown. In cells and extracts the contact can be indirect.

The chains behind the UniProt entries cited, without tags or fusion partners. Residues count along the entry.
UniProt P14625, residues 22-803: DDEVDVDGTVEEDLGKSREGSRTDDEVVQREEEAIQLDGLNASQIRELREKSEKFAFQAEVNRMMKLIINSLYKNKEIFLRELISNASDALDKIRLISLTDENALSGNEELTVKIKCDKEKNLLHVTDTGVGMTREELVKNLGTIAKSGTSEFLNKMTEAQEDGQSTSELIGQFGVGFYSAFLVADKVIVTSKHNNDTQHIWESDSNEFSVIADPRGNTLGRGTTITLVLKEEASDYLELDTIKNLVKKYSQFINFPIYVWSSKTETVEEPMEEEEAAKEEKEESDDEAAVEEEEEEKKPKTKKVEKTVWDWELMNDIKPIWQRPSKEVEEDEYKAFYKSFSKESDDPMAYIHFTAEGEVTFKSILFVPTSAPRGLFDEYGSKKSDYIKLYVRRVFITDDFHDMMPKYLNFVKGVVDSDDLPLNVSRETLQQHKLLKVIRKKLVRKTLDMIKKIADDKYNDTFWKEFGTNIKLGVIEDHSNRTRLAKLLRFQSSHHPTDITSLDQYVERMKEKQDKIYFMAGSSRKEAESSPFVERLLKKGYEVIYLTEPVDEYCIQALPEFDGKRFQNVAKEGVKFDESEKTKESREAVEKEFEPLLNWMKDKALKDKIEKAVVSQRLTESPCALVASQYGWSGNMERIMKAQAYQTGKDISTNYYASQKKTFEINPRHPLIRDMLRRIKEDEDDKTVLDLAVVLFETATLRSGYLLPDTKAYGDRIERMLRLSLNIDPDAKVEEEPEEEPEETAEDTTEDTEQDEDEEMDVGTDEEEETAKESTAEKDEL
UniProt Q9GZT9: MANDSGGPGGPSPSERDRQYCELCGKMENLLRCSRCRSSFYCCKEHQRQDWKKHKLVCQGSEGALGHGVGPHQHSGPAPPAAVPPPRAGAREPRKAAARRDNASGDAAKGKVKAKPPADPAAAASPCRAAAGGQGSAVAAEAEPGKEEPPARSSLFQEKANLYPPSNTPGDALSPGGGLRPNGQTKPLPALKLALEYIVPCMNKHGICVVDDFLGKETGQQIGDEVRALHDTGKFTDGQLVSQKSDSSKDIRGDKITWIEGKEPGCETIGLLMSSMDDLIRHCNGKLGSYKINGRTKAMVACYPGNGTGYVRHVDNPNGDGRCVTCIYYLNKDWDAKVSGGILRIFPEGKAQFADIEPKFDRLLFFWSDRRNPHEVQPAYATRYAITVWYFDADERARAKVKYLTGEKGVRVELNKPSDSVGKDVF

Target: EYFP-fused GRP94 (GRP94 in pEYFP-N1) (UniProt P14625)
Test: FRET or BRET; live-cell confocal FRET of ECFP (donor) and EYFP (acceptor) fusions in HEK293 cells transfected 48 h; acceptor/donor plasmid ratios 1:1 to 5:1; FRET efficiency against A/D ratio fitted to a 1:1 binding model

binding: no binding
Substance: PHD2-ECFP (PHD2 coding sequence in pECFP-N1) (from UniProt Q9GZT9 1-426) (enzyme)
